# Data published in article PMC5996148.
# The other results are listed elsewhere or left out. For some of these results: The exact form of the protein is not confirmed.
# How the values were obtained:
# Experiment in all cases: protein microarray (ProtoArray v5.0), streptavidin-Alexa Fluor 647
# Details in all cases: 3'-biotin; 20 mM Tris (pH 7.5), 5 mM MgCl2, 100 mM KCl, 0.1% Tween-20, A/T-rich and random oligonucleotide blockers; temperature not stated; high values mean tight binding
# [1] = system: SERPINA6 (human)
# [2] = system: SERPINA7 (human)
# [3] = system: SERPINB1 (human)
# [4] = target: T1, SERPINF1 (UniProt P36955)
# T1 sequence: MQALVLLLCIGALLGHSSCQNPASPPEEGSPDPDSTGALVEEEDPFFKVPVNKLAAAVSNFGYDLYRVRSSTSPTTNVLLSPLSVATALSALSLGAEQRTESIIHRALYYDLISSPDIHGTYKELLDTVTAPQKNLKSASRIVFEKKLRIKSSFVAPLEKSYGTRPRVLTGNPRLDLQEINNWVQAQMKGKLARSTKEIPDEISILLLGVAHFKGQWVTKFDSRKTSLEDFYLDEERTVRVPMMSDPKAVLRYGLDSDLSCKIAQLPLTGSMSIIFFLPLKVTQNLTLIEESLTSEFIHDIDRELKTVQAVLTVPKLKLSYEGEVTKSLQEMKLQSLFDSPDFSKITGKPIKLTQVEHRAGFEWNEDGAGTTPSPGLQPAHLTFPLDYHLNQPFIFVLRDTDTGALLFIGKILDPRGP
# [5] = system: SF3A3 (human)
# [6] = system: SFT2D1 (human)
# [7] = system: SFXN1 (human)
# [8] = system: SFXN3 (human)
# [9] = system: SGTA (human)
# [10] = system: SIP1 (human)
sequence,measurement,setting,value
GGGGACAGGGGTATGGGGAGGGG [G4-3 biotinylated (CtG)],binding signal,[1],-0.326 z-score
same,binding signal,[2],-0.324 z-score
same,binding signal,[3],-0.335 z-score
same,binding signal,[4],5.21 z-score
same,binding signal,[5],-0.333 z-score
same,binding signal,[6],-0.321 z-score
same,binding signal,[7],-0.314 z-score
same,binding signal,[8],-0.329 z-score
same,binding signal,[9],-0.321 z-score
same,binding signal,[10],-0.339 z-score

# Reformatted: entries from further up.
sequence | measurement | setting | value
GGGGACAGGGGTATGGGGAGGGG [G4-3 biotinylated (CtG)] | binding signal | [5] | -0.333 z-score
same | binding signal | [7] | -0.314 z-score
